Measured values taken from publication PMC11323550.
No constants are given. Whether binding was seen depends on the method and setting. Some entries that bind do so weakly or less than the wild type. Where a sequence is shown, tags or fusion partners need not be part of it.

Protein sequences, listed by entry. Tags and fused reporters are not part of them. Residues count along the entry.
UniProt Q2FVZ6, residues 2-84: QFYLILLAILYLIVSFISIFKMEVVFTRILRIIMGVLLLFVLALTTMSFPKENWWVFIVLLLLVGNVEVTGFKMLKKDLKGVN
UniProt Q2G093: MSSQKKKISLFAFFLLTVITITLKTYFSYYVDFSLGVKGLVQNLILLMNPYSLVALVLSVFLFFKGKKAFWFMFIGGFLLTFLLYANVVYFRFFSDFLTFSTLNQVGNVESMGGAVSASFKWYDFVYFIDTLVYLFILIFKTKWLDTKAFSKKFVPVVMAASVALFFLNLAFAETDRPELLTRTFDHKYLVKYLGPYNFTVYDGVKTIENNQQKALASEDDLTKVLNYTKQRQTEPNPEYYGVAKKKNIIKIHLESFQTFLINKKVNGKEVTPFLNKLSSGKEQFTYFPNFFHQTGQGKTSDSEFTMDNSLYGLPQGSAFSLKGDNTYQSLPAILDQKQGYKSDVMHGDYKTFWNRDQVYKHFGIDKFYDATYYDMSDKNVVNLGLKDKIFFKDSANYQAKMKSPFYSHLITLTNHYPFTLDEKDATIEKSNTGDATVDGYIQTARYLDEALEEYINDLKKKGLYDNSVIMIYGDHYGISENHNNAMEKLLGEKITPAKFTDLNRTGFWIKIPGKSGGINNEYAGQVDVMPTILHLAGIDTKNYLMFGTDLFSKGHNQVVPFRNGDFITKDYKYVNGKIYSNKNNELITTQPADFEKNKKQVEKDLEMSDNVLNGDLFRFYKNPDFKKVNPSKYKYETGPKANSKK
UniProt Q2FZP8: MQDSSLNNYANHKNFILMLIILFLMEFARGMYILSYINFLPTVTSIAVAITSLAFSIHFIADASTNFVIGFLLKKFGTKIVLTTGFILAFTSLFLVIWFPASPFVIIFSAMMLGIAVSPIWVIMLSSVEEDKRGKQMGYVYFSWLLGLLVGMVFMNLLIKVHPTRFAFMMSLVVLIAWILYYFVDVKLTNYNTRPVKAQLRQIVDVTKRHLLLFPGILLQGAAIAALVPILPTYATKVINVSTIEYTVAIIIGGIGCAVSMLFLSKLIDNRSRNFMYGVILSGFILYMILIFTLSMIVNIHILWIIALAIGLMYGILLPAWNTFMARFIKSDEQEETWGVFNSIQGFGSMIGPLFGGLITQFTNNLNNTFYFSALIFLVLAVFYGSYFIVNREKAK

B1: T25 fused to N-terminus of UgtP (enzyme, UniProt Q2FZP7 1-391)
chain: MVTQNKKILIITGSFGNGHMQVTQSIVNQLNDMNLDHLSVIEHDLFMEAHPILTSICKKWYINSFKYFRNMYKGFYYSRPDKLDKCFYKYYGLNKLINLLIKEKPDLILLTFPTPVMSVLTEQFNINIPVATVMTDYRLHKNWITPYSTRYYVATKETKQDFIDVGIDPSTVKVTGIPIDNKFETPINQKQWLIDNNLDPDKQTILMSAGAFGVSKGFDTMITDILAKSANAQVVMICGKSKELKRSLTAKFKSNENVLILGYTKHMNEWMASSQLMITKPGGITITEGFARCIPMIFLNPAPGQELENALYFEEKGFGKIADTPEEAIKIVASLTNGNEQLTNMISTMEQDKIKYATQTICRDLLDLIGHSSQPQEIYGKVPLYARFFVK

target: MspA amino acids 2-84 with T18 tag fused at the C-terminus (S. aureus) (UniProt Q2FVZ6); assay: two-hybrid; bacterial two-hybrid (BACTH), T25 and T18 fusions co-transformed in E. coli BTH101; dotted on LB with X-gal and 1-mM IPTG, 30°C for 24 h; three replicates

Q: “T25 fused to N-terminus of LtaS (from UniProt Q2G093 1-646) (enzyme)” was tested. Which binding did it give?
A: binds

Q: How did the binding turn out when “T25 fused to N-terminus of LtaA (from UniProt Q2FZP8 1-396)” was run?
A: binds

Q: With B1 as the molecule, how does the binding read?
A: binds
